Experimental data reported in PubChem BioAssay AID1688 (National Center for Advancing Translational Sciences (NCATS), 2009).
Among all 220,000 compounds or so, about 2,400 (1.1%) were called active. The shares of active, inactive and inconclusive entries below differ from those in the screen. Calls follow the shape of the dose curve; as a rule, active = well fitted inhibition curve with a large enough effect; inconclusive = small, poorly fitted or top-dose-only effect, or effect the other way; inactive = no such curve, though single readings can be large or run the other way. A potency beside an inconclusive call is a rough fit, not a confirmed value.

Experiment: qHTS Multiplex Assay to Identify Dual Action Probes in a Cell Model of Huntington: Aggregate Formation (GFP); also: nearly all actives have a fitted effect of over 60% in size
Conditions: PC12 HttQ103-GFP aggregates, Acumen cytometry, 40 h; activity change, negative = inhibition: at 46.1 µM (top of the series) unless noted
How it was run: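 Huntingtin Q103 exon 1–GFP aggregates in induced PC12 cells (100 nM tebufenozide) were quantified by cytometry from lysates, with compounds dosed in titration.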
% is scaled to controls: 0 for no effect and ±100 for the full control effect; potency is read from the fitted curve at half-maximal effect.

Row | SMILES | Potency | activity change, negative = inhibition
1 | O=C(c1ccco1)c1cn[nH]c1-c1ccc(Cl)cc1O | inconclusive: 8.91 µM [inhibitor, partial curve] | –
2 | Cc1[nH]c2ccccc2c1CN1CCC(Cc2ccccc2)CC1 | inconclusive: 22.4 µM [inhibitor, single point] | –
3 | c1ccc(-c2cnn3c(-c4ccccc4)c(-c4ccccc4)nc3n2)cc1 | – | inactive: -8.03%
4 | Cc1ccc2c(C(=O)CN3CCSCC3)c(C)[nH]c2c1 | inconclusive: 3.55 µM [inhibitor, partial curve] | –
5 | CCN(CCCNC(=O)CC1Oc2ccc(C)cc2NC1=O)Cc1ccccc1 (stereo unspecified) | inconclusive: 2.24 µM [inhibitor, partial curve] | –
6 | Cc1nn(-c2ccccc2)c2sc(C(=O)NNC(=O)COc3ccccc3)cc12 | inconclusive: 35.5 µM [inhibitor, single point] | –
7 | Cc1nn(Cc2c(Cl)cccc2Cl)c(C)c1NC(=O)c1cc(C(C)C)on1 | inconclusive: 35.5 µM [inhibitor, single point] | –
8 | Nc1nc(SCC(=O)Nc2cccc(Oc3ccccc3)c2)n[nH]1 | inconclusive: 35.5 µM [inhibitor, single point] | –
9 | COc1ccc(NC(=O)CCN2C(=O)C3C4CCC(C4)C3C2=O)cc1 (stereo unspecified) | – | inactive: 12.2%
10 | COc1ccc(OC)c(C2=Nn3c(nnc3-c3cc(C)[nH]n3)SC2)c1 | inconclusive: 0.794 µM [activator, single point] | –
11 | CN(C)c1ccccc1C(=O)N1CCCC(C(=O)c2ccc3ccccc3c2)C1 (stereo unspecified) | active: 31.6 µM | –
12 | CC(=O)Nc1ccc(NC(=O)CSc2ccc(-c3ccc4c(c3)OCO4)nn2)cc1 | – | inactive: -3.04%
13 | CCCOc1ccc(C(=O)N2CCN(c3ccc(NC(=O)CC)cc3Cl)CC2)cc1 | inconclusive: 0.562 µM [inhibitor, full curve, poor fit] | –
14 | CSc1nc2ccccc2n1Cc1cccc(F)c1 | inconclusive: 10 µM [activator, partial curve] | –
15 | Cc1cc2nc(C)n(CCCNC(=O)Nc3cccc4ccccc34)c2cc1C | inconclusive: 7.08 µM [inhibitor, full curve] | –
16 | CCC1Sc2ccccc2N(CC(=O)NCc2ccccc2OC)C1=O (stereo unspecified) | inconclusive: 35.5 µM [inhibitor, single point] | –
17 | CCOC(=O)c1ccc2c(c1)nc(COc1ccccc1C#N)n2CC | inconclusive: 5.62 µM [inhibitor, single point] | –
18 | CCOc1ccc(C(C)=O)cc1N1C(=O)C2C3C=CC(C3)C2C1=O (stereo unspecified) | – | inactive: -8.91%
19 | CCC(C)n1c(=O)c(C(=O)Nc2ccccc2S(N)(=O)=O)c(O)c2ccccc21 (stereo unspecified) | inconclusive: 22.4 µM [inhibitor, single point] | –
20 | O=C(c1ccc(C(=O)N2CCCc3ccccc32)s1)N1CCCc2ccccc21 | inconclusive: 3.55 µM [activator, partial curve] | –
21 | COc1ccc(C(=O)CSc2nc3ncccc3[nH]2)cc1OC | – | inactive: 4.72% [at 9.22 µM]
22 | N#Cc1nc(-c2ccco2)oc1N1CCC(Cc2ccccc2)CC1 | inconclusive: 14.1 µM [inhibitor, single point] | –
23 | CCCCCCCCC[n+]1cccc2c3ccccc3ccc21 | active: 2.51 µM | –
24 | Cn1c(=O)n(C)c2cc([N+](=O)[O-])c(N3CCN(S(=O)(=O)c4ccccc4)CC3)cc21 | inconclusive: 3.16 µM [inhibitor, full curve] | –

Row | SMILES | Potency | activity change, negative = inhibition
25 | Cc1cc(C)nc(N/N=C/c2ccccc2OCc2ccc(Br)cc2)n1 | inconclusive: 35.5 µM [inhibitor, single point] | –
26 | O=C1S/C(=C/c2ccc(N3CCOCC3)o2)C(=O)N1Cc1c(F)cccc1Cl | inconclusive: 35.5 µM [activator, single point] | –
27 | O=C(CSc1nnc(-c2ccccc2)o1)NCC1CCCCC1 | – | inactive: -18.6%
28 | COc1ccccc1N1CCN(C(=O)c2ccc(CSc3ccccc3)cc2)CC1 | active: 22.4 µM | –
29 | CN(Cc1ccccc1)C(=O)C1CCCN(Cc2ccc(Cl)cc2)C1 (stereo unspecified) | inconclusive: 3.16 µM [activator, partial curve] | –
30 | [O-][n+]1c2c(c3c4non(O)c4ccc31)CCCC2 | inconclusive: 20 µM [inhibitor, single point] | –
31 | COc1cc(C(=O)Oc2ccccc2/C=N/NC(=O)c2ccc(C)c(Cl)c2)cc(OC)c1OC | active: 2.82 µM | –
32 | O=C(NCc1ccco1)c1ccccc1-c1ccccc1 | – | inactive: -0.696%
33 | Cc1ccc(S(=O)(=O)NC(=O)c2ccc(-c3ccc(-c4ccccc4)cc3)o2)c(C)c1 | – | inactive: 6.64%
34 | COc1ccc(-n2c(C)c(C(C)=O)c3cc(O)ccc32)cc1 | active: 0.316 µM | –
35 | O=C(CCc1ccc(S(=O)(=O)N2CCOCC2)cc1)Nc1nc(COc2ccccc2)cs1 | inconclusive: 20 µM [inhibitor, partial curve] | –
36 | COc1ccc(NS(=O)(=O)/C=C/c2ccccc2)cc1 | – | inactive: 20%
37 | COc1cccc(/C=N/NC(=O)c2nc(-c3ccccc3)cc(-c3ccccc3)n2)c1O | inconclusive: 5.62 µM [inhibitor, single point] | –
38 | CCCc1cc(=O)[nH]c(SCc2ccccc2)n1 | – | inactive: -17.9%
39 | Cc1cc(-c2c(C)[nH]n(-c3ccc(Cl)cc3)c2=O)n[nH]1 | active: 11.2 µM | –
40 | COc1ccc(CCNC(N)=S)cc1OC | – | inactive: 1.42%
42 | O=C(O)c1ccccc1C(=O)Nc1ccc(Br)c(C(F)(F)F)c1 | – | inactive: 8.03% [at 9.22 µM]
43 | CCN1CCN(C(=S)NC(CC(=O)c2ccccc2)c2ccccc2)CC1 (stereo unspecified) | – | inactive: -0.316% [at 9.22 µM]
44 | CCOC(=O)c1sc(NC(=O)CSc2nc3c(cc2C#N)CCCCC3)c(C#N)c1C | active: 5.62 µM | –
45 | CN(C)CCCN(C(=O)CCOc1ccccc1)c1nc2c(F)cccc2s1 | active: 12.6 µM | –
46 | COc1ccc(CN(C(=O)c2cc3ccccc3oc2=O)C2CCS(=O)(=O)C2)cc1 (stereo unspecified) | inconclusive: 3.55 µM [inhibitor, partial curve] | –
47 | COc1ccc(-c2cnc(N)n2CC2CCCO2)cc1 (stereo unspecified) | inconclusive: 35.5 µM [inhibitor, single point] | –
48 | CCC(C)(C)n1nnnc1C(c1cc2ccc(OC)cc2[nH]c1=O)N1CCc2ccccc21 (stereo unspecified) | inconclusive: 6.31 µM [activator, partial curve, poor fit] | –

Row | SMILES | Potency | activity change, negative = inhibition
49 | CC(C)(C)N(Cc1ccccc1)C(=O)CCc1ccccc1 | inconclusive: 5.62 µM [activator, single point] | –
50 | CCOC(=O)c1c(NC(=O)C2=C(C)NC(=S)NC2c2ccc(CC)cc2)sc(C)c1C (stereo unspecified) | inconclusive: 35.5 µM [inhibitor, single point] | –
51 | CCN(CC)c1ccc(Nc2nc(N3CCOCC3)c3ccccc3n2)cc1 | active: 7.94 µM | –
52 | Cc1c(CCC(C)C)c(=O)n2c([nH]c3ccccc32)c1C#N | inconclusive: 2 µM [inhibitor, partial curve] | –
53 | CC1CN(c2cc3nccnc3cc2F)CC(C)O1 (stereo unspecified) | inconclusive: 31.6 µM [inhibitor, single point] | –
54 | O=C(c1ccccc1)N1CCN=C1SCc1ccc([N+](=O)[O-])cc1 | inconclusive: 11.2 µM [activator, partial curve] | –
55 | Cc1sc2ncnc(Sc3ccccc3C(=O)Nc3ccccc3Cl)c2c1C | – | inactive: 13.9%
56 | O=C(N/N=C/c1cc([N+](=O)[O-])ccc1O)/C(=C\c1cccs1)NC(=O)c1ccccc1 | inconclusive: 12.6 µM [inhibitor, partial curve] | –
57 | O=C(Nc1ccc(-c2noc(CCc3ccccc3)n2)cc1)c1cccnc1 | inconclusive: 14.1 µM [inhibitor, single point] | –
58 | Cc1cc2c(c(=O)o1)C1(C(=O)N(CC(=O)O)c3ccccc31)C(C#N)=C(N)O2 (stereo unspecified) | – | inactive: 13.7%
59 | CCOC(=O)c1cnc2ccccc2c1Nc1cc(C(=O)O)ccc1C | – | inactive: -29.5%
60 | O=C(c1ccc(CNS(=O)(=O)c2cccc(C(F)(F)F)c2)cc1)N1CCOCC1 | inconclusive: 5.01 µM [inhibitor, single point] | –
61 | Cc1cccc(Nc2cc(C)c3c(O)cccc3n2)c1C | inconclusive: 25.1 µM [inhibitor, single point] | –
62 | Cc1ccc(-n2c(C)cc(C(=O)CSc3n[nH]c(N)n3)c2C)cc1 | inconclusive: 35.5 µM [inhibitor, partial curve] | –
63 | Cc1[nH]c2ccccc2c1/C=N/Nc1nc(Nc2ccc(F)cc2)nc(N2CCOCC2)n1 | inconclusive: 35.5 µM [inhibitor, single point] | –
64 | O=C(Nc1cccc2ncccc12)c1ccc(F)cc1 | – | inactive: -12%
65 | Oc1ccc(Br)cc1C=Nc1ccc2c3c(cccc13)CC2 | – | inactive: -19.4%
66 | O=C(O)CCn1cc(/C=C\C(=O)c2ccc(Cl)cc2)c(-c2cccc(Br)c2)n1 | inconclusive: 11.2 µM [activator, single point] | –
67 | COc1cc2c(cc1NC(=O)CSc1cccc[n+]1[O-])oc1ccccc12 | inconclusive: 11.2 µM [activator, partial curve] | –
68 | C=CCNC1=C(Cl)C(=O)N(c2ccccc2Cl)C1=O | – | inactive: 25.8%
69 | CC(=O)c1c(C)oc2c1C(=O)c1ccccc1C2=O | active: 7.08 µM | –
70 | C#CCOCCOCCOCCNc1nc(N2CCN(C(=O)[C@H](CCC(=O)O)n3cc(C(N)CC(C)C)nn3)CC2)nc(N2CCN(C(=O)[C@H](CCC(=O)O)n3cc(C(N)[C@H](C)CC)nn3)CC2)n1 (stereo partly specified) | – | inactive: -12.2% [at 9.22 µM]
71 | CC1=CC2=NC(=O)/C(=C\c3cccn3CCOc3cc(C)ccc3C)C(=N)N2O1 | inconclusive: 12.6 µM [inhibitor, partial curve] | –

Given as comma-separated lines: part of the list above
Row,SMILES,Potency,"activity change, negative = inhibition"
50,CCOC(=O)c1c(NC(=O)C2=C(C)NC(=S)NC2c2ccc(CC)cc2)sc(C)c1C (stereo unspecified),"inconclusive: 35.5 µM [inhibitor, single point]",–
51,CCN(CC)c1ccc(Nc2nc(N3CCOCC3)c3ccccc3n2)cc1,active: 7.94 µM,–
52,Cc1c(CCC(C)C)c(=O)n2c([nH]c3ccccc32)c1C#N,"inconclusive: 2 µM [inhibitor, partial curve]",–
